From publication PMC8012910 come the findings set out here.

Protein sequences, listed by entry. Tags and fused reporters are not part of them.
UniProt O35718: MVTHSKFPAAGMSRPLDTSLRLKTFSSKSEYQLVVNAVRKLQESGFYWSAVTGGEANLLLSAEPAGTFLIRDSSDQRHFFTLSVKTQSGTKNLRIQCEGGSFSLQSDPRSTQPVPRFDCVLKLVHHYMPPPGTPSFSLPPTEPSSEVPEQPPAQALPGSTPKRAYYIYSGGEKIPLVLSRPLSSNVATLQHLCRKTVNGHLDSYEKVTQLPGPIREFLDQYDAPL

No constants are given. Whether binding was seen depends on the method and setting. Binding seen in cells or lysates may run through a third protein. Some entries that bind do so weakly or less than the wild type.

This test has as its target SOCS3-Myc (suppressor of cytokine signaling 3, Myc-tagged) (UniProt O35718). Description: co-IP; IP of SOCS3-Myc from lysates of transfected OP9-DL1 cells (anti-Myc by the methods, 'anti-SOCS3' by the legend) or isotype control, Protein-G agarose, 4°C; Western blot with rabbit anti-TRIM21.

B1: E3 ubiquitin ligase TRIM21 (protein, UniProt Q62191 1-470)
chain: MSPSTTSKMSLEKMWEEVTCSICLDPMVEPMSIECGHCFCKECIFEVGKNGGSSCPECRQQFLLRNLRPNRHIANMVENLKQIAQNTKKSTQETHCMKHGEKLHLFCEEDGQALCWVCAQSGKHRDHTRVPIEEAAKVYQEKIHVVLEKLRKGKELAEKMEMDLTMQRTDWKRNIDTQKSRIHAEFALQNSLLAQEEQRQLQRLEKDQREYLRLLGKKEAELAEKNQALQELISELERRIRGSELELLQEVRIILERSGSWNLDTLDIDAPDLTSTCPVPGRKKMLRTCWVHITLDRNTANSWLIISKDRRQVRMGDTHQNVSDNKERFSNYPMVLGAQRFSSGKMYWEVDVTQKEAWDLGVCRDSVQRKGQFSLSPENGFWTIWLWQDSYEAGTSPQTTLHIQVPPCQIGIFVDYEAGVVSFYNITDHGSLIYTFSECVFAGPLRPFFNVGFNYSGGNAAPLKLCPLKM
As to B1, the binding result is “binds”.
